Some results were stated once for a whole list of compounds, not compound by compound.
Test system: PD-1 expression on T-cells
Assay: FACS of PD-1 expression on T-cells activated with anti-CD3 (2C11) for 48 hours
Assay type: cell-based, mouse
Details: anti-CD3 (2C11) 48 hours; anti-CD3 increased MFI by 5 fold (FIG. 4)
Protocol: For anti-CD3 activation of T-cells, cells were stimulated with 5 μg/ml of anti-CD3 (2C11) in RPMI medium supplemented with 10% FCS, 2 mM glutamine, 50 uM 2-ME, 100 U/ml penicillin/streptomycin for 2-4 days using established methods.
The presence of cells was confirmed by using forward scatter height or side scatter height n the form of a dot and contor plots. […] Non-stained cells were used a control.
(§1) The chemical structures of each inhibitor are shown on bottom and right sides of figure.
as §1

Question: How did the “inhibition of anti-CD3 induced increase in PD-1 expression (MFI)” value turn out when `Cn1cc(C2=C(c3ccc(Cl)cc3Cl)C(=O)NC2=O)c2ccccc21` [SB216763, 3-(2,4-dichlorophenyl)-4-(1-methyl-1H-indol-3-yl)-1H-pyrrole-2,5-dione] was run?
Answer: The value was > 60%.
